Results on four substances are retold here after doi:10.1101/2020.10.05.326181.

Sequences of proteins named here, by UniProt entry; tags and fusion partners are left off. A change or cut given only in a name is not applied to a line headed by its entry.
UniProt Q92547: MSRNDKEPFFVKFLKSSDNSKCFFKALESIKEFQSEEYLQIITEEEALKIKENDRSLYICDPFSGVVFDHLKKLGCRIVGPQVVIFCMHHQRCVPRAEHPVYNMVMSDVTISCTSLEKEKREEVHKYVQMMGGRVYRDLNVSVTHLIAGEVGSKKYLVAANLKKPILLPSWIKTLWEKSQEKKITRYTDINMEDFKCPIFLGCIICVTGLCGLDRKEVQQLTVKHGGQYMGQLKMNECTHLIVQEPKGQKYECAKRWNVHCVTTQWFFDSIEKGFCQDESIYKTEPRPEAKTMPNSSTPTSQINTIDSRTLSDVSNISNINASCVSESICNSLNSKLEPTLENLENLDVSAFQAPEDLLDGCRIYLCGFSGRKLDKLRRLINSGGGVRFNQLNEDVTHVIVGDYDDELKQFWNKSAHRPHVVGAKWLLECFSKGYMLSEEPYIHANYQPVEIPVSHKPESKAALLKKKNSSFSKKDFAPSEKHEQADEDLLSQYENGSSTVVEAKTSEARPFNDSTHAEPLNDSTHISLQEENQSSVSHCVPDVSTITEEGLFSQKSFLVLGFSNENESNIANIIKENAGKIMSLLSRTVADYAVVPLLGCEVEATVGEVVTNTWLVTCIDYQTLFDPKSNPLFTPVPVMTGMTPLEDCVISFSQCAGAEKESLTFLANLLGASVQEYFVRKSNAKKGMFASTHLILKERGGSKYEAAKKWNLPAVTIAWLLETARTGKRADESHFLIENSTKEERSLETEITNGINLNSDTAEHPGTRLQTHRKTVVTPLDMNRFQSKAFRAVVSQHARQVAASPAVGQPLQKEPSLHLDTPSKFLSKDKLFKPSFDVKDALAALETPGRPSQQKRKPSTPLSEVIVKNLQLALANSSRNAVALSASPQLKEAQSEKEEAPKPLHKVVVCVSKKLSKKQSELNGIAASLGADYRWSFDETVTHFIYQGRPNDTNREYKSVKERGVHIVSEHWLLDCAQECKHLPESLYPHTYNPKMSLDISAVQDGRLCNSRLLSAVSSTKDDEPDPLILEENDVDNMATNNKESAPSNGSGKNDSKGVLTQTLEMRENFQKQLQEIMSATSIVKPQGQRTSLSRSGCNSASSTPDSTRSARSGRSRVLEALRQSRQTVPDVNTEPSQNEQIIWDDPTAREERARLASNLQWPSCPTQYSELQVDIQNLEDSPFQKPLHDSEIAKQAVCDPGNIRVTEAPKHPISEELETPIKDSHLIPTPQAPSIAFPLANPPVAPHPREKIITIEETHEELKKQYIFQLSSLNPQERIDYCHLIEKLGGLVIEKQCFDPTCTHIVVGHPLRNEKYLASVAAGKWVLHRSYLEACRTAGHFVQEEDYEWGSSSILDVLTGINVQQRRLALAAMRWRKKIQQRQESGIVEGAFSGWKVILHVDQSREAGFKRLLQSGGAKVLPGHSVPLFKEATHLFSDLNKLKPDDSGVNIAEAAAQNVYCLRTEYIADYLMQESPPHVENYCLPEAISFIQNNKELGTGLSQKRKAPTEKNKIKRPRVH
UniProt Q13535: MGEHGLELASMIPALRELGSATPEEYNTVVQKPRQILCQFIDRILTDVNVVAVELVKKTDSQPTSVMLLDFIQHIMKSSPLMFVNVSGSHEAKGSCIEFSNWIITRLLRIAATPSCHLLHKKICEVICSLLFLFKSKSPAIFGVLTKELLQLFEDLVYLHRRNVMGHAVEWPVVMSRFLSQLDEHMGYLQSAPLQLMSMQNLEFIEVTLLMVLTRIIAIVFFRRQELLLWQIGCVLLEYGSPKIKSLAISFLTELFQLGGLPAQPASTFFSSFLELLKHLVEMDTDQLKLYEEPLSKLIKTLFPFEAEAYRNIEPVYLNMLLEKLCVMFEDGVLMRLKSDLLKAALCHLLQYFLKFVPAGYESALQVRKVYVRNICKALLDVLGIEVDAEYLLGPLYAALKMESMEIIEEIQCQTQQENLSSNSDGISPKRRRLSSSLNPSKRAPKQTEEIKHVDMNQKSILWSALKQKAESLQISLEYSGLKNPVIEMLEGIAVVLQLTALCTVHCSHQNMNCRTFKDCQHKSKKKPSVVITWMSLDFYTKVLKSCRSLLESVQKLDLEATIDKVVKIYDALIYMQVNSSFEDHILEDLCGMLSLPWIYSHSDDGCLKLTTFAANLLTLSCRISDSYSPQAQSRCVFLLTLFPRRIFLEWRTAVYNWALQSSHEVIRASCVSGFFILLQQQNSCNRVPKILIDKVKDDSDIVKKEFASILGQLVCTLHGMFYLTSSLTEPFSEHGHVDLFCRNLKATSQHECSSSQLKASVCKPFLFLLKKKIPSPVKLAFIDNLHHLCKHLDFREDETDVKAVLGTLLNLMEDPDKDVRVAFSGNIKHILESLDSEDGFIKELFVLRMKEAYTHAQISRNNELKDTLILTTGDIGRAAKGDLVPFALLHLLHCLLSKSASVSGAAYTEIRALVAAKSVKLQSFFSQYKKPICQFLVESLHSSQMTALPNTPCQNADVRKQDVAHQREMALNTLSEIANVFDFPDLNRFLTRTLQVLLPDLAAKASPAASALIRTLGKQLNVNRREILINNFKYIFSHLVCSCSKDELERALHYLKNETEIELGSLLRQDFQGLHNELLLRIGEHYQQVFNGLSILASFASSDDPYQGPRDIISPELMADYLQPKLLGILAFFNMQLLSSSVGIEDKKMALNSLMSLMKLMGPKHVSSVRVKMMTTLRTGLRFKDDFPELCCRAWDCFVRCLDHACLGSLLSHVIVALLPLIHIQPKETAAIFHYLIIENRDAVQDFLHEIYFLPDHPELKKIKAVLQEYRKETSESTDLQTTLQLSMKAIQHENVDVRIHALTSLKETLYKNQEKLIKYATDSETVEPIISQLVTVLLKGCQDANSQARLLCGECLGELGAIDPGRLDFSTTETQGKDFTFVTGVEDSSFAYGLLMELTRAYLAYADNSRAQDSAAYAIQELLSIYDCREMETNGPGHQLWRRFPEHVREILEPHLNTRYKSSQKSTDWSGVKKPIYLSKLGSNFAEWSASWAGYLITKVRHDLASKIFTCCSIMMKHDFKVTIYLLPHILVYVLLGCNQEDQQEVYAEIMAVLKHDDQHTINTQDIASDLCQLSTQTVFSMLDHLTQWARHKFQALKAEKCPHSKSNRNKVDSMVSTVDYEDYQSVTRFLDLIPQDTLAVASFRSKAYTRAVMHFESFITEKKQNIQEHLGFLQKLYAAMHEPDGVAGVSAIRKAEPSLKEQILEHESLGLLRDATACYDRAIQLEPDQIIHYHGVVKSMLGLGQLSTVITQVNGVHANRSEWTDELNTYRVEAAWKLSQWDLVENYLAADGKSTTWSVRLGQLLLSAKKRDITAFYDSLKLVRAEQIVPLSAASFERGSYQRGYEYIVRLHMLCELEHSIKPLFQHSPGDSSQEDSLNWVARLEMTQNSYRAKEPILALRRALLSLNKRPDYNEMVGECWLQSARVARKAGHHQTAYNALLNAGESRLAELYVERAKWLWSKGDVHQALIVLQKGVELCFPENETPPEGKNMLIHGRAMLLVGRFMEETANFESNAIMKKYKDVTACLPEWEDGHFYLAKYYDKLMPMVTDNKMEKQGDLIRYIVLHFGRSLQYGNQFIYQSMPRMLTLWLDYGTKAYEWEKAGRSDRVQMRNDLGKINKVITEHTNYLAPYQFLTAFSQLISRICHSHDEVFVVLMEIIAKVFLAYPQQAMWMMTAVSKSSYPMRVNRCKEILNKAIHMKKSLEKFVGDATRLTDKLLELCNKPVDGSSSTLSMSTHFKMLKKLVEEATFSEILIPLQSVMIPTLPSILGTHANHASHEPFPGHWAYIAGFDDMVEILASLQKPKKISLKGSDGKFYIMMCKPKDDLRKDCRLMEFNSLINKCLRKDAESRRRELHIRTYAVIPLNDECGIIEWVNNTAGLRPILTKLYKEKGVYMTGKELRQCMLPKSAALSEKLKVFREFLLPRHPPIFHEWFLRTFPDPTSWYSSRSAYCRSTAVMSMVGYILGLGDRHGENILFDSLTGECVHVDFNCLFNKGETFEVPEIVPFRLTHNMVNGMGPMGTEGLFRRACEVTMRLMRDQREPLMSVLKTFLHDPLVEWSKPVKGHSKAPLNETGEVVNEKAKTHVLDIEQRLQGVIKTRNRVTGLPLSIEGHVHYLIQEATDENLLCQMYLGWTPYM
UniProt O60934: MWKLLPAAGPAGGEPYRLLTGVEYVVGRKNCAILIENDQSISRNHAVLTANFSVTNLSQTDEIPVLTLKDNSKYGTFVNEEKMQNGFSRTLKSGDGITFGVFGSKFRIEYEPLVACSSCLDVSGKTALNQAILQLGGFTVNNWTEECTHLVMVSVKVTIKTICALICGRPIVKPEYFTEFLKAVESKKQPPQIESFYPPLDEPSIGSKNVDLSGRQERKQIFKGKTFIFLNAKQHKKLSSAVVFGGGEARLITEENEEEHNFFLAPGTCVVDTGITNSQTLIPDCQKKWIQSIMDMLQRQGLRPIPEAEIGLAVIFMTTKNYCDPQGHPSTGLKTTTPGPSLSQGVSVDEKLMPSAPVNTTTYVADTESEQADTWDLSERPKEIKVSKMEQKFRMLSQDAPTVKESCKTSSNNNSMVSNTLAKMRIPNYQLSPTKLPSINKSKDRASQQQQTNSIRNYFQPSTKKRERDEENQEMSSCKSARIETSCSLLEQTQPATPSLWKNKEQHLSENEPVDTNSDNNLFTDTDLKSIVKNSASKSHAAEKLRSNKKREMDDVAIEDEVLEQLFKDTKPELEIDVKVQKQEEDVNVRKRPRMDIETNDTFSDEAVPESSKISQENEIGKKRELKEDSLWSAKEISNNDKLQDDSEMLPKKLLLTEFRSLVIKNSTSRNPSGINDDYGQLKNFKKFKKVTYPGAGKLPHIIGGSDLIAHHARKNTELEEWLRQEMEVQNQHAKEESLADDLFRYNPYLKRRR
UniProt P54132: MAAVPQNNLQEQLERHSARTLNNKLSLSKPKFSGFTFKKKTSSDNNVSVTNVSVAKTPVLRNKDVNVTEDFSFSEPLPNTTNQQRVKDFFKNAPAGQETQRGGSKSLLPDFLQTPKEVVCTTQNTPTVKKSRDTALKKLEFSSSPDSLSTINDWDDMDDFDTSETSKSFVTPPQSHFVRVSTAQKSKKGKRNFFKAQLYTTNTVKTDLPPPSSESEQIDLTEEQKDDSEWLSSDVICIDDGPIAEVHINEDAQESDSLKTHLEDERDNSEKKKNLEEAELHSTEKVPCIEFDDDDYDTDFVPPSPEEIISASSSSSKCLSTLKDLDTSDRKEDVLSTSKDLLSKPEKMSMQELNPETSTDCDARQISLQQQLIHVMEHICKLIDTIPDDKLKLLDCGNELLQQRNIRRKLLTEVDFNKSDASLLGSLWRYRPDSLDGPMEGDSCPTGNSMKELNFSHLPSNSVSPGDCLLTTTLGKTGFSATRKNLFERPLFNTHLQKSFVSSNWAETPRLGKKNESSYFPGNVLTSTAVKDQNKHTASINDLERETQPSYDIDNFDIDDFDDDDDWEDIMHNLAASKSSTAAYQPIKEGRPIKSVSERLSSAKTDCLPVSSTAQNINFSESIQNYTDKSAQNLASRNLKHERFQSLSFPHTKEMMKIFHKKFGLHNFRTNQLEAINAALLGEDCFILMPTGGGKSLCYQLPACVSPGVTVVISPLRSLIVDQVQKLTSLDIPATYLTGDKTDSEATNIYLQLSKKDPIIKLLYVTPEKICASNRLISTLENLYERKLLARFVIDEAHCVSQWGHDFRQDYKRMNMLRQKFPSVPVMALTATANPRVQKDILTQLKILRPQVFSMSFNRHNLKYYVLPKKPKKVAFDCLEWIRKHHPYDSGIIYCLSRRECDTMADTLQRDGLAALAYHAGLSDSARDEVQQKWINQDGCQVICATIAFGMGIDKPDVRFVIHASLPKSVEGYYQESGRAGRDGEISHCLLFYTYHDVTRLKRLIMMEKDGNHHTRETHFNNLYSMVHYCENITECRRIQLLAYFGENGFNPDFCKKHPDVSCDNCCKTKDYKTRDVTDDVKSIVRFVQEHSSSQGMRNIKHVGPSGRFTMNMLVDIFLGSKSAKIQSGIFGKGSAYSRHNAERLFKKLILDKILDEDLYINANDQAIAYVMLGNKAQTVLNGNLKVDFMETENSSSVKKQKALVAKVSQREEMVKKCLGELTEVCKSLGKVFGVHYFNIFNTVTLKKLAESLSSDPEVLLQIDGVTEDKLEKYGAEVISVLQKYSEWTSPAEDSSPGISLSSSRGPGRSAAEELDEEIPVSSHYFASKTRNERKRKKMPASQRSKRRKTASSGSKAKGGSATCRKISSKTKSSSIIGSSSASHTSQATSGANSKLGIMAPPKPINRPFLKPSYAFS

These are yes or no findings as the source states them, for the method shown. Binding seen in cells or lysates may run through a third protein. A yes stands for co-enrichment or nearness to the bait. Other partners may have been found.

Common to all, as to experiment: proximity labelling
The target in assay [1] is Flag-BirA*-TopBP1 WT (human) (UniProt Q92547).
Assay [2] concerns the target opto-TopBP1 WT (TurboID-TopBP1-mCherry-Cry2) (human) (UniProt Q92547).
The target in assay [3] is opto-TopBP1 S1138D (TurboID-TopBP1 S1138D-mCherry-Cry2) (human) (UniProt Q92547).

As to ATR (from UniProt Q13535 1-2644), the binding entry in assay [1] is “binds”.
Same read-out and setting: next, NBS1 (from UniProt O60934 1-754): “binds”.
For the substance “phospho ATR (Thr1989) (from UniProt Q13535 1-2644)”, the binding entry in assay [2] and in assay [3] was “binds” each time.
On to BLM (from UniProt P54132 1-1417), for which the binding result in assay [1] is listed as “binds”.
